Measurements taken from PubChem BioAssay AID1688 (National Center for Advancing Translational Sciences (NCATS), 2009).
Hit rate of the full screen: of about 220,000 compounds, about 2,400 (1.1%) were called active. The inconclusive results got no clear call from the source; some entries with a clear call stand among them for comparison. Calls follow the shape of the dose curve; as a rule, active = well fitted inhibition curve with a large enough effect; inconclusive = small, poorly fitted or top-dose-only effect, or effect the other way; inactive = no such curve, though single readings can be large or run the other way. Potencies beside an inconclusive call are fits to weak or partial responses and may not hold up.

Experiment: qHTS Multiplex Assay to Identify Dual Action Probes in a Cell Model of Huntington: Aggregate Formation (GFP); also: nearly all actives have a fitted effect of over 60% in size
Details: PC12 HttQ103-GFP aggregates, Acumen cytometry, 40 h; activity change, negative = inhibition: at 46.1 µM (top of the series) unless noted
Method in brief: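 Inducible Q103 Huntingtin exon 1–GFP PC12 line, 1500 cells/well in phenol red free DMEM with 5% equine and 5% calf serum. Tebufenozide 100 nM induced expression; compounds titrated; aggregates quantified by cytometry.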
% is scaled to controls: 0 for no effect and ±100 for the full control effect; potency is read from the fitted curve at half-maximal effect.

Row | SMILES | Potency | activity change, negative = inhibition
1 | C=CCn1c(=O)c(C(=O)NCCc2ccccc2)c(O)c2ccccc21 | inconclusive: 11.2 µM [inhibitor, partial curve, poor fit] | –
2 | Cc1cc(C)c2c(=O)[nH]c(SCC(=O)c3ccc(C)c(C)c3)nc2n1 | inconclusive: 0.562 µM [activator, full curve, poor fit] | –
3 | Cc1cc2c(cc1C)C(=O)NC(C)(C)C2 | active: 10 µM | –
4 | O=C(N/N=C/c1ccc(N2CCOCC2)o1)c1cccc(F)c1 | inconclusive: 35.5 µM [inhibitor, single point] | –
5 | Cc1cc(N2CCN(c3nc(-c4ccccc4)cs3)CC2)c2ccccc2n1 | inconclusive: 35.5 µM [inhibitor, single point] | –
6 | COc1cc2c(cc1OC)CN(C(=O)CSc1nc3[nH]ncc3c(=O)n1-c1ccccc1)CC2 | – | inactive: 3.83%
7 | c1ccc(-c2nc3nc4ccccc4nc3n2Cc2ccco2)cc1 | inconclusive: 35.5 µM [inhibitor, single point] | –
8 | COc1ccc(C2=NOC(C(=O)Nc3ccc4c(c3)OCO4)C2)cc1OC (configuration not stated) | – | inactive: 17.5%
9 | CCCCn1nnc(NC(=O)c2sc3cc(Cl)ccc3c2Cl)n1 | active: 0.631 µM | –
10 | COc1ccc(S(=O)(=O)N2CCSC2c2ccc(OC)c(OC)c2)cc1 (configuration not stated) | inconclusive: 35.5 µM [inhibitor, single point] | –
11 | Cc1cccc(-c2oc(C)c(C)[n+]2[O-])c1 | – | inactive: -0.268% [at 9.22 µM]
12 | Oc1ccc2ccccc2c1C=NC12CN3CCN(CN(C3)C1)C2 | inconclusive: 28.2 µM [inhibitor, single point] | –
13 | O=C(NCc1ccccn1)C1C2C=CC(C2)C1C(=O)Nc1ccc(F)cc1 (configuration not stated) | – | inactive: 7.2%
14 | CC(=O)c1cn(CC(=O)NCc2cccnc2)c2ccccc12 | inconclusive: 0.562 µM [inhibitor, full curve, poor fit] | –
15 | Cc1nc(-n2[nH]c3c(c2=O)CCCC3)[nH]c(=O)c1Cc1ccccc1 | inconclusive: 0.794 µM [inhibitor, full curve, poor fit] | –
16 | CCOC(=O)c1ccc(-n2[nH]c(-c3ccccc3)cc2=O)cc1 | inconclusive: 35.5 µM [inhibitor, single point] | –
17 | OC1CCN(c2ncnc3nc[nH]c23)CC1 | inconclusive: 11.2 µM [inhibitor, single point] | –
18 | CC(CCc1ccc(O)cc1)NCCc1ccc(O)c(O)c1 (configuration not stated) | inconclusive: 35.5 µM [inhibitor, single point] | –
19 | COCC1CCN(Cc2cn(Cc3ccccc3)nc2-c2cc3ccccc3o2)CC1 | inconclusive: 3.16 µM [inhibitor, single point] | –
20 | CCc1cc(-c2n[nH]c(=S)n2-c2ccccc2C)cs1 | – | inactive: -8.66%
21 | CC(C)S(=O)(=O)c1csc(NC(=O)Nc2cc(Cl)ccc2Cl)c1Cl | – | inactive: 25.6% [at 9.22 µM]
22 | COC(=O)c1ccc2c(c1)C(C)(C)C(/C=C/c1ccccc1O)=[N+]2C | active: 3.55 µM | –
23 | CCCCn1c(NCc2ccc(N(C)C)cc2)nc2ccccc21 | – | inactive: -5.36% [at 9.22 µM]
24 | CC(=O)c1cccc(NC(=O)COC(=O)c2ccc(S(C)(=O)=O)c([N+](=O)[O-])c2)c1 | inconclusive: 35.5 µM [inhibitor, single point] | –

Fetched by compound from the list above:
Row | SMILES | Potency | activity change, negative = inhibition
10 | COc1ccc(S(=O)(=O)N2CCSC2c2ccc(OC)c(OC)c2)cc1 (configuration not stated) | inconclusive: 35.5 µM [inhibitor, single point] | –
18 | CC(CCc1ccc(O)cc1)NCCc1ccc(O)c(O)c1 (configuration not stated) | inconclusive: 35.5 µM [inhibitor, single point] | –

Next part:

Row | SMILES | Potency | activity change, negative = inhibition
25 | CCSC1=C(C#N)C(c2ccc3c(c2)OCO3)C2=C(CCCC2=O)N1 (configuration not stated) | inconclusive: 3.98 µM [inhibitor, single point] | –
26 | COC(=O)c1c(C)[nH]c(C)c1-c1ccccc1Cl | active: 8.91 µM | –
27 | C/C(=N\Nc1nc(C)cc(-c2ccccc2)n1)c1ccc(C)o1 | inconclusive: 14.1 µM [inhibitor, single point] | –
28 | O=C(c1cccc(S(=O)(=O)N2CCCC2)c1)N1CCN(c2ccccc2)CC1 | inconclusive: 35.5 µM [inhibitor, partial curve] | –
29 | CCCCCCCCCCn1ccc(=N)cc1 | inconclusive: 2.51 µM [inhibitor, partial curve] | –
30 | O=C(CSc1ccc2c(c1)OCCO2)NCc1ccco1 | – | inactive: 9.21%
31 | O=C(Nc1ccccc1)/C(=C\c1cccs1)NC(=O)c1ccccc1 | inconclusive: 35.5 µM [activator, partial curve, poor fit] | –
32 | CCOc1ccc(S(=O)(=O)NN)cc1 | – | inactive: 18.8%
33 | Cc1cccc([N+](=O)[O-])c1NC(=O)CN(Cc1ccccc1)Cc1ccccc1 | – | inactive: -11.5%
34 | c1nc2nc3c(c(N4CCOCC4)n2n1)CCCC3 | – | inactive: 3.91%
35 | CCC(=O)Nc1nonc1-c1nc2ccccc2n1Cc1ccccc1 | inconclusive: 12.6 µM [activator, partial curve] | –
36 | CCCS(=O)(=O)N1CCC(C(=O)NCCCOCC)CC1 | inconclusive: 11.2 µM [inhibitor, single point] | –
37 | Cc1ccc(-c2nnc(CSc3nnc(COc4ccccc4)n3-c3ccc(C)cc3)o2)cc1 | inconclusive: 17.8 µM [inhibitor, single point] | –
38 | CCOC(=O)c1cc(CC)sc1NC(=O)C1CC(=O)NN1Cc1ccccc1 (configuration not stated) | active: 10 µM | –
39 | Cc1ccc(NC(=O)CS(=O)CC(=O)Nc2ccc(N3CCOCC3)cc2)cc1Cl (configuration not stated) | inconclusive: 12.6 µM [activator, single point] | –
40 | Cc1occc1C(=O)NCc1ccccc1 | – | inactive: -0.16%
41 | O=S(=O)(c1ccccc1)n1ccc2ccccc21 | active: 11.2 µM | –
42 | O=C(Nc1ccc(-n2cnnn2)cc1)C1CCC1 | inconclusive: 17.8 µM [inhibitor, single point] | –
43 | C=C(C)CNC(=S)NNC(=O)c1ccncc1 | inconclusive: 10 µM [activator, partial curve] | –
44 | O=C(CN1C(=O)/C(=C2\SC(=S)N(C3CCS(=O)(=O)C3)C2=O)c2ccccc21)Nc1ccccc1 (configuration not stated) | – | inactive: -21.2%
45 | CCC(C)c1ccc(NC(=S)NN2CCOCC2)cc1 (configuration not stated) | inconclusive: 5.62 µM [inhibitor, single point] | –
46 | Cc1ccccc1S(=O)(=O)Nc1ncc(C(F)(F)F)cc1Cl | inconclusive: 35.5 µM [inhibitor, single point] | –
47 | O=S(=O)(Nc1nc2ccccc2s1)c1ccc(Br)s1 | inconclusive: 35.5 µM [inhibitor, single point] | –
